These results are taken from paper PMC3197640, “Human Engineered Heart Tissue as a Versatile Tool in Basic Research and Preclinical Toxicology” (PLoS ONE, 2011).

In the data set the test system is human engineered heart tissue (hEHT). The method, then:
Calcium-concentration response curves were established in DMEM, 1% penicillin/streptomycin, 10 mM HEPES, and 100 µM acetylcysteine with calcium concentrations adjusted to the desired final concentration (0.2–3.0 mmol/L). Equilibration time was 20 minutes. Measurements were performed under spontaneous activity by automated video-optical recording and analysis (customized software, Consulting Team Machine Vision) as previously described. Contractile force F was calculated from the degree of post deflection δ (µm), silicone post length (L) and radius (R) and elastic modulus (E) by the formula F = 3πER^4δ/4L^3 [29]. Contraction- and relaxation velocities were calculated as the average maximal steepness of twitch contraction or relaxation, respectively. Each value represents the mean of all measurable contraction twitches in the recording period of 60 seconds per hEHT.
EHTs were equilibrated in DMEM, 1% penicillin/streptomycin, 10 mM HEPES, 100 µM acetylcysteine for one hour. […] Isoprenaline and carbachol were used at 100 nM and 10 µM, respectively.
Intervals between two contractions were determined for all recordings. […] Interval scatter was therefore defined as the length between 10th and 90th percentile (interdecile range, IDR). Statistical difference between groups of biological replicas were determined with Mann-Whitney U Test (*P<0.05).

For the compound `Cc1cccc(CCN2CCC(C(=O)c3ccc(NS(C)(=O)=O)cc3)CC2)n1` [E-4031], the “Concentration at which force of contraction and contraction velocity declined significantly” value stood at 30 nM; the “Threshold concentration at which the compound significantly decreased relaxation velocity” value is reported as 3 nM; the “Threshold concentration inducing irregular beating patterns (RR-scatter)” value was 10 nM.
